Laboratory results: the supplement of paper PMC6078165
± gives the standard deviation of the averaged measurements. The reference is the same well before dosing, and untreated signal decays as well.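 The cancer cells are triple-negative breast cancer lines of basal-like or mesenchymal-like type, grown without fibroblasts. A drop in red signal reflects loss of mitochondrial integrity, a stand-in for apoptotic death.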

How the values were obtained:
MDAMB436 = experiment: relative JC-1 red fluorescence (viability) vs pre-drug, monoculture (fraction); higher = more viable cancer cells; conditions: coculture fibroblast: none (monoculture)
Method: (§1)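 JC-1 labelled TNBC cells grown in monoculture (density kept equal with unlabelled cancer cells) in 384-well plates in FluoroBrite medium, treated with one of 42 anticancer drugs at 0.1, 1, 10 or 100 uM. JC-1 red fluorescence (mitochondrial integrity, surrogate of apoptotic death) was read by plate reader every 8 h for 72 h. Values are normalised to each well's pre-drug value, with background from alamethicin. The stock of one drug was tenfold lower, so its dose labels may be too high. Monoculture values are repeated alongside each fibroblast plate and are averaged here.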

MDAMB231 = experiment: as above; conditions: coculture fibroblast: none (monoculture)
Method: as §1

CC(C)C[C@H](NC(=O)[C@H](Cc1ccccc1)NC(=O)c1cnccn1)B(O)O [Bortezomib]
relative JC-1 red fluorescence
Conditions	8 h	16 h	24 h	32 h	40 h	48 h	56 h	64 h	72 h
MDAMB231, 0.1 µM	0.81 ± 0.041	0.78 ± 0.03	0.901 ± 0.083	0.784 ± 0.06	0.8216 ± 0.0069	0.845 ± 0.031	0.8595 ± 0.0081	0.85 ± 0.088	0.9375 ± 0.0035
MDAMB231, 1 µM	0.83 ± 0.13	0.7266 ± 0.0063	0.817 ± 0.18	0.663 ± 0.038	0.781 ± 0.2	0.762 ± 0.19	0.719 ± 0.2	0.741 ± 0.2	0.741 ± 0.18
MDAMB231, 10 µM	0.909 ± 0.061	0.775 ± 0.028	0.9229 ± 0.0063	0.788 ± 0.014	0.733 ± 0.034	0.865 ± 0.069	0.816 ± 0.039	0.812 ± 0.018	0.8237 ± 0.003
MDAMB231, 100 µM	0.799 ± 0.03	0.747 ± 0.04	0.624 ± 0.079	0.586 ± 0.062	0.535 ± 0.053	0.528 ± 0.048	0.49 ± 0.046	0.505 ± 0.045	0.498 ± 0.039
MDAMB436, 0.1 µM	0.837 ± 0.042	0.818 ± 0.081	0.777 ± 0.06	0.774 ± 0.076	0.839 ± 0.09	0.812 ± 0.062	0.887 ± 0.037	0.821 ± 0.041	0.792 ± 0.068
MDAMB436, 1 µM	0.82 ± 0.0088	0.7858 ± 0.0054	0.767 ± 0.022	0.707 ± 0.049	0.657 ± 0.06	0.645 ± 0.066	0.636 ± 0.067	0.633 ± 0.07	0.627 ± 0.071
MDAMB436, 10 µM	0.9211 ± 0.0075	0.8416 ± 0.005	0.8886 ± 0.0024	0.8661 ± 0.0046	0.9002 ± 0.0077	0.925 ± 0.013	0.939 ± 0.018	0.957 ± 0.015	0.966 ± 0.014
MDAMB436, 100 µM	0.9137 ± 1.8e-05	0.8486 ± 0.0078	0.786 ± 0.013	0.744 ± 0.032	0.72 ± 0.029	0.715 ± 0.035	0.708 ± 0.036	0.706 ± 0.04	0.694 ± 0.042

CC[C@]1(O)C[C@@H]2CN(CCc3c([nH]c4ccccc34)[C@@](C(=O)OC)(c3cc4c(cc3OC)N(C)[C@H]3[C@@](O)(C(=O)OC)[C@H](OC(C)=O)[C@]5(CC)C=CCN6CC[C@]43[C@@H]65)C2)C1 [Vinblastine]
relative JC-1 red fluorescence
Conditions	8 h	16 h	24 h	32 h	40 h	48 h	56 h	64 h	72 h
MDAMB231, 0.1 µM	0.781 ± 0.017	0.6841 ± 0.0042	0.6955 ± 0.0063	0.633 ± 0.02	0.604 ± 0.015	0.594 ± 0.013	0.578 ± 0.0021	0.6127 ± 0.00018	0.6228 ± 0.0043
MDAMB231, 1 µM	0.733 ± 0.01	0.6851 ± 0.0019	0.634 ± 0.023	0.58 ± 0.0077	0.548 ± 0.0089	0.533 ± 0.0057	0.514 ± 0.014	0.537 ± 0.022	0.536 ± 0.021
MDAMB231, 10 µM	0.688 ± 0.0097	0.708 ± 0.039	0.655 ± 0.11	0.675 ± 0.07	0.628 ± 0.072	0.6 ± 0.072	0.567 ± 0.077	0.562 ± 0.075	0.533 ± 0.086
MDAMB231, 100 µM	0.635 ± 0.062	0.552 ± 0.071	0.316 ± 0.058	0.205 ± 0.067	0.143 ± 0.061	0.108 ± 0.055	0.0971 ± 0.052	0.108 ± 0.048	0.1 ± 0.039
MDAMB436, 0.1 µM	0.869 ± 0.012	0.751 ± 0.014	0.783 ± 0.019	0.734 ± 0.024	0.715 ± 0.032	0.712 ± 0.042	0.712 ± 0.05	0.717 ± 0.051	0.728 ± 0.044
MDAMB436, 1 µM	0.8484 ± 0.0031	0.751 ± 0.01	0.788 ± 0.003	0.7535 ± 0.0061	0.731 ± 0.021	0.711 ± 0.021	0.699 ± 0.027	0.689 ± 0.023	0.677 ± 0.02
MDAMB436, 10 µM	0.831 ± 0.016	0.781 ± 0.02	0.778 ± 0.018	0.718 ± 0.022	0.685 ± 0.018	0.656 ± 0.024	0.617 ± 0.018	0.587 ± 0.017	0.572 ± 0.017
MDAMB436, 100 µM	0.742 ± 0.021	0.658 ± 0.036	0.554 ± 0.035	0.389 ± 0.026	0.282 ± 0.0092	0.22 ± 0.0065	0.193 ± 0.0059	0.17109 ± 0.0001	0.1531 ± 0.0004
